Reference: the supplement of paper PMC8256030
Values joined by “and” are separate entries in the source; they are usually repeats but may differ in a detail not shown here. Identical values can stand only once. This is one part of the list. Single values are uncertain here, since repeats match poorly.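 HEK293T cells were given each compound shortly before transfection with a reporter in which red mCherry is followed by the SARS-CoV-2 frameshift element and then GFP in the −1 frame, so GFP appears only after frameshifting.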

What was measured:
[1] = tested on: SARS-CoV-2 -1 PRF reporter mCherry-FSE-GFP(-1); test: mCherry (red) intensity as percent of control; higher = higher upstream reporter expression; details: 10 µM; 24 h; HEK293T
[2] = tested on: SARS-CoV-2 -1 PRF reporter mCherry-FSE-GFP(-1); test: percent effect, decrease of GFP/mCherry ratio (-1 PRF reporter) relative to controls; higher = stronger frameshift inhibition; details: 10 µM; 24 h; HEK293T

Row | Compound | mCherry [1] | percent effect [2]
1 | C1COC(NC(C2CC2)C2CC2)=N1 [rilmenidine] | 90.7% | -2.21%
2 | CC(=O)SCC(Cc1ccccc1)C(=O)NCC(=O)OCc1ccccc1 (stereo not drawn) [racecadotril] | 98.2% and 99.9% | -1.62% and 1.51%
3 | O=C(O)Cc1cn(-c2ccccc2)nc1-c1ccc(Cl)cc1 [lonazolac] | 115% | -8.61%
4 | CNC(=S)NCCSCc1[nH]cnc1C [metiamide] | 100% | -4.48%
5 | CC(C)=CCC/C(C)=C/CC/C(C)=C/C=C/C(C)=C/C(=O)O [peretinoin] | 101% | -5.99%
6 | O=C(Nc1ccccc1)OCC(CN1CCCCC1)OC(=O)Nc1ccccc1 (stereo not drawn) | 105% | -3.22%
7 | C[N+](C)(C)CC(=O)O | 95.3% | -7.93%
8 | NCCC[C@H](N)CC(=O)N[C@H]1CNC(=O)[C@H]([C@H]2C[C@H](O)NC(N)=N2)NC(=O)/C(=C/NC(N)=O)NC(=O)[C@H](CO)NC(=O)[C@H](CO)NC1=O [viomycin] | 128% | 2.6%
9 | NC1CCN(c2c(F)cc3c(=O)c(C(=O)O)cn(C4CC4)c3c2Cl)C1 (stereo not drawn) [Clinafloxacin] | 61.4% | -4.23%
10 | CC(=O)[C@@]1(O)[C@H](O)C[C@H]2[C@@H]3CCC4=CC(=O)CC[C@]4(C)[C@H]3CC[C@@]21C [algestone] | 90.6% | -0.9%
11 | C[C@@H]1C[C@H]2[C@@H]3CCC4=CC(=O)C=C[C@]4(C)[C@@]3(F)[C@@H](O)C[C@]2(C)[C@@]1(O)C(=O)COP(=O)(O)O | 102% | 1.04%
12 | c1ccc(CN(CC2=NCCN2)c2ccccc2)cc1 [antazoline] | 91.7% | -3.83%
13 | CN(C)CCCN1c2ccccc2Sc2cccnc21 [prothipendyl] | 46.5% | 1.59%
14 | CCCCc1oc2ccc(NS(C)(=O)=O)cc2c1C(=O)c1ccc(OCCCN(CCCC)CCCC)cc1 [dronedarone] | 102% | -3.59%
